Data published in publication PMC7804152, “Structural basis for the multi-activity factor Rad5 in replication stress tolerance”.
Positions count from the first letter of the chain named. The comparison behind a weaker result is the experiment's own reference, which may not be listed here. Protein sequences can lack the tags named with them. For some assays here: For at least one entry, the source does not settle the construct or the ends of the probe. For some assays here: At least one verdict rests on a figure or table, not on a statement of the authors.

How the values were obtained:
Assay in all cases: fluorescence polarization
[1] = target: T1, KlRad5 R1000E (Kluyveromyces lactis) (UniProt Q6CJM4); settings: 50 mM NaCl; FP: 20 mM Tris pH 7.5, 50 mM (dsDNA, KlHIRAN) or 70 mM (ssDNA) NaCl, 2 mM MgCl2, 1 nM DNA, room temp; recombinant protein; residues 163-1114; label: 5'-FAM
T1 sequence (looked up): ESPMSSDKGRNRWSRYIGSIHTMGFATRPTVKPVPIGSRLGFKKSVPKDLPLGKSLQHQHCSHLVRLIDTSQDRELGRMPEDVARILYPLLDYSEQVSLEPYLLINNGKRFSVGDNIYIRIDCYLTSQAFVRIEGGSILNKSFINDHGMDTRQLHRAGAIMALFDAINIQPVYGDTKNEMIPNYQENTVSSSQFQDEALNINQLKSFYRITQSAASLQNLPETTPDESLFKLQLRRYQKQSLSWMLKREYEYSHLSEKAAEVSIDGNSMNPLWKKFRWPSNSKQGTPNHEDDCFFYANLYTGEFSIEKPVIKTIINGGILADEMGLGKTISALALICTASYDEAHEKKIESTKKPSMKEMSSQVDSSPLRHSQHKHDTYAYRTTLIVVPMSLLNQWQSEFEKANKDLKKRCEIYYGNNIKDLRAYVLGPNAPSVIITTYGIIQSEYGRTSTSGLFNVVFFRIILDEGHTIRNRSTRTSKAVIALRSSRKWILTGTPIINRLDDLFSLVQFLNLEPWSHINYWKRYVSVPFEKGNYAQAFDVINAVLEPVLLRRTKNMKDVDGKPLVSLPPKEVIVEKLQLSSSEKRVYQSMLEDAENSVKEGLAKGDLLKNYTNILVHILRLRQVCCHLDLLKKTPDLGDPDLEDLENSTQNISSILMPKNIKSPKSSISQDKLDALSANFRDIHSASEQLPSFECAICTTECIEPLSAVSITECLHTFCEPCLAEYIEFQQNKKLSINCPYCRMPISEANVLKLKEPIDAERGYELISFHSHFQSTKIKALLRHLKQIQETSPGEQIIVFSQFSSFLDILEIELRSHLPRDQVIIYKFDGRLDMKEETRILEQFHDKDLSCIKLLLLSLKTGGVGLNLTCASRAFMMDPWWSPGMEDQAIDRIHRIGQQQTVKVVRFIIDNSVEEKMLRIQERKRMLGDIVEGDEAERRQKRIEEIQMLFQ

[2] = target: T2, His-KlRad5 L325A (Kluyveromyces lactis) (UniProt Q6CJM4); settings: FP: 20 mM Tris pH 7.5, 50 mM (dsDNA, KlHIRAN) or 70 mM (ssDNA) NaCl, 2 mM MgCl2, 1 nM DNA, room temp, recombinant protein, residues 163-1114, protein details: N-terminal His6, label: 5'-FAM
T2 sequence (looked up): T1 sequence (looked up) with L163A, E838R

[3] = target: T3, His-KlRad5 F326A (Kluyveromyces lactis) (UniProt Q6CJM4); settings: FP: 20 mM Tris pH 7.5, 50 mM (dsDNA, KlHIRAN) or 70 mM (ssDNA) NaCl, 2 mM MgCl2, 1 nM DNA, room temp, recombinant protein, residues 163-1114, protein details: N-terminal His6, label: 5'-FAM
T3 sequence (looked up): T1 sequence (looked up) with F164A, E838R

Sequence | binding result [1] | binding result [2] | binding result [3] | binding result ([2]; single-stranded DNA) | binding result ([3]; single-stranded DNA)
ACCAGTGCCAGTGAT (double strand) [D2a/D2b dsDNA] | binds more weakly | binds more weakly | binds more weakly | – | –
TTTTTTTCGTCTTCGGCAATTTTTT [S1 ssDNA, 5'-FAM] | – | – | – | binds more weakly | binds more weakly
